Source: article PMC10163288
This is one part of the list.

B1: il2ra_site1_3nfp_normal_mot_HHH_b1_00630_af2_000000193_0001_42_55_H_._ae2d1c0b5552e85e62693402b9c72bf7_0001_0001_0000300036_0000001_0 (protein)
chain: DRVAKRLIEEAIRQNDELTLKRILRALENILGNPEEAERVLEELIRELLGDPEEAKEIVQEIAER
B2: il2ra_site1_3nfp_sap_16_mot_HHH_b2_08182_af2_000000158_0001_1_17_H_._HHH_b1_06062_0001_0000500034_0000001_0_0001_af2pred_0001_af2pred (protein)
chain: DEEELVERDLEKLARLAGVPQVSVENRNGTFHIEINGDNKKARHLQRFAERALRSLGKPVEVTVE
B3: il2ra_site2_2erj_normal_mot_HHH_b1_05630_000000190_0001_1_20_H_._HHH_b2_02707_0001_0000500014_0000001_0 (protein)
chain: SSSSDAEELVRRLLEEAEEAAERNDPARVYQLLAEAYRIAFENNDREALRFVSEVSVEIFSSSSS
B4: il2ra_site1_3nfp_normal_mot_HHH_b2_05101_000000267_0001_1_16_H_._ems_3hM_201_0001_0001300038_0000001_1 (protein)
chain: DREQREASDALIEAAAKLQLRNVDPEEVERVIQEVAEELQEEIQDPENQKAVQFLAEFLIKRVCS
B5: il2ra_site2_2erj_sap_26_mot_6d5f7cbc25fed124e3eb7f952334b9cf_0001_af2_000000048_0001_1_13_H_._HHH_b1_03116_af2_0001_0000300013_0000001_0_0001_af2pred_0001_1_af2 … (protein)
chain: SSSSSEAEEEIEELLERIKRLLEEGNPEEALVLILRVAELALELEDEELLEAVTRLLRRTQSSSS
B6: il2ra_site1_3nfp_sap_15_mot_HHH_b2_06193_000000064_0001_1_20_H_._HHH_b1_06659_af2_0002_0000500014_0000001_0_0001 (protein)
chain: SSSSNEQAHEMIRAAAKAQLAAWERGDPETAKEVYELAARYAREGDERLREELERLLEEILSSSS
B7: il2ra_site2_3nfp_sap_16_mot_HHH_b2_06150_000000217_0001_39_53_H_._HHH_b1_00010_0001_0000400034_0000001_0_0001 (protein)
chain: SSSSDQERMLRLALEALEAAARLGDEEMFEKSLEYIKAAALLANDEEVKEEVERLEEEFHSSSSS
B8: il2ra_site2_2erj_sap_18_mot_HHH_b1_02757_000000121_0001_41_57_H_._HHH_b1_04572_0001_0000200008_0000001_0_0001 (protein)
chain: SSSSDIEERLEELIREVEELLERGDPEEATVVLVEAAFLALEAGDDEALRELWKLSREVFSSSSS
B9: il2ra_site2_3nfp_sap_21_mot_HHH_b1_03376_000000004_0001_41_55_H_._HHH_b1_04137_0001_0000300028_0000001_0_0001 (protein)
chain: SSSSSSDDEELKEELKELLEEGDEEKLEEVVKEAAHLAFEKGDFELFAIANEAAEELFSSSSSSS
B10: il2ra_site1_1z92_normal_mot_934a834d9b8b770824478def2ff2f329_0001_af2_000000088_0001_15_30_H_._HHH_b1_08366_af2_0001_0000200014_0000001_0_af2pred_0001_af2pred (protein)
chain: SSSSSAEEELEKIVEELVEEFKLSEIDKRALEKFAKRALEEGADLELIKKDLERTAKHLSSSSSS
B11: il2ra_site2_2erj_sap_30_mot_64bd02d26d05ce9f1a62b616cea0b888_0001_af2_000000029_0001_36_49_H_._HHH_b1_06320_af2_0001_0000700026_0000001_0_0001 (protein)
chain: SSSSSEASERVAELLAEAIELAKEGNPEEAEKLLEEAREIAEKANNEALRRYVEYARRDVSSSSS
B12: il2ra_site2_2erj_normal_mot_HHH_b1_07975_000000047_0001_41_57_H_._HHH_b1_02271_0001_0000200003_0000001_0_af2pred_0001_af2pred (protein)
chain: SSSSDESREVARRSVEELLERGNPIRALAEVRLLREFAERSNDPELRELTEELQELVREGSSSSS
B13: il2ra_site1_3nfp_sap_10_mot_HHH_b2_01680_af2_000000278_0001_1_15_H_._3d8f192e90fe1e6e5fcf0d306f82013b_0001_0001_0000400025_0000001_0_0001 (protein)
chain: DLEENFKEAAEQIAEIAGVPSVEVENNNGTLEVTFEGDEQDARVASKLVEEAARILGVEVSVEVR
B14: il2ra_site1_3nfp_normal_mot_HHH_b2_07277_000000087_0001_39_56_H_._HHH_b2_01570_0001_0000300016_0000001_0 (protein)
chain: SSSSSDEEEFRRRVRELLEEAKEVPDPREAIEIFEEALKLAARLGDPELDKLVREFVKELSSSSS
B15: il2ra_site1_1z92_normal_mot_HHH_b2_07758_000000290_0001_1_17_H_._HHH_b2_04201_af2_0001_0000300026_0000001_0 (protein)
chain: SSSSDRLERQAKRIVEILVEIAGLDEEQQEKLEELAEELLERGVDFLELLKELNRLAAELESSSS
B16: il2ra_site1_2b5i_sap_25_mot_203a44625a3a2ba431098544127a80a6_0001_af2_000000085_0001_36_50_H_._3cb01cd59277439e4f5c2b5f7f6b6153_0001_1_af2_0001_0000100007_00000 … (protein)
chain: SSSSDDEVVEIAAEAFSRASRLFLNGNKEEAREVLEEALRLLRELGDPELVEQLEHFLEKASSSS
B17: il2ra_site1_2b5i_normal_mot_HHH_b2_04910_000000118_0001_1_19_H_._HHH_b1_00447_0001_0000100005_0000001_0_af2pred_dldesign_0_af2pred (protein)
chain: SSSSGSPECVKALELFLEANKLKQAGKEEEAKELLEKALELAKKGKCTSLEKMIESALKSLSSSS
B18: il2ra_site2_3nfp_sap_14_mot_HHH_b1_04720_af2_000000144_0001_22_38_H_._9ef7f51dc382628e5cb330fd54d9e629_0001_0001_0000400020_0000001_1_0001 (protein)
chain: SSSSSDVEELLEQVEELLKEGDKYQATHVLMEASELAARLGDPELVRAVLELFKLLQEASSSSSS

Molecular target: il2ra, P01589
Assay: yeast display titration

Apparent Kd, inactive:
B1 no binding seen
B2 no binding seen
B3 no binding seen
B4 no binding seen
B5 no binding seen
B6 no binding seen
B7 no binding seen
B8 no binding seen
B9 no binding seen
B10 no binding seen
B11 no binding seen
B12 no binding seen
B13 no binding seen
B14 no binding seen
B15 no binding seen
B16 no binding seen
B17 no binding seen
B18 no binding seen

Fetched one by one from the entries so far (2):
Apparent Kd, inactive:
B1 no binding seen
B5 no binding seen
